Source: the supplement of paper PMC9135407
Where “and” joins values, the source holds several entries; their conditions need not be identical. Equal values may be shown once. Where a name gives a salt, the structure may show the parent alone. ± gives the standard deviation of the averaged measurements. Some of the results follow. Baselines shift from plate to plate; read single values as rough.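 Primary human stellate myofibroblasts activated in culture; inactivation shown by regained lipid droplets. Readout: fraction of Hoechst-counted cells exceeding a per-plate Bodipy threshold, duplicate wells, each plate with DMSO negative and nortriptyline positive controls. Hits: control-normalized score beyond the plate's top-tenth-percentile nortriptyline wells, or among its three best wells. Final well concentrations unstated.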

System: primary human hepatic stellate cells (donor 1)
Assay: percent Bodipy-positive cells; higher = more lipid droplet accumulation
Settings: 48 h
Description: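 Primary lipid accumulation screen in primary human hepatic stellate cell myofibroblasts (donor 1, passage 8) in 384-well plates. 100 nL of library compound was pin-transferred into 30 µL medium in duplicate, and cells were treated for 48 h. The 'Scaled' score combines distance from plate baseline, toxicity and reproducibility penalties, and is normalised to nortriptyline (positive) and DMSO (negative) controls on each plate. A hit is defined as scaled >0.85 or among the top 3 wells per plate.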

[1] = library stock concentration: 4.4 mM
[2] = library stock concentration: 3.33 mM
[3] = library stock concentration: 10 mM
[4] = library stock concentration: 80 uM
[5] = library stock concentration: 400 uM
[6] = library stock concentration: 2 mM
[7] = library stock concentration: 1 mM
[8] = library stock concentration: 5.3 mM

SMILES: CC(C)Nc1cccnc1N1CCN(C(=O)c2cc3cc(NS(C)(=O)=O)ccc3[nH]2)CC1 [Delavirdine mesylate]
- percent Bodipy-positive cells [1]: 8.9 ± 0.65%

SMILES: Cc1onc(-c2ccccc2Cl)c1C(=O)N[C@@H]1C(=O)N2[C@@H]1SC(C)(C)[C@@H]2C(=O)O [Cloxacillin sodium salt]
- percent Bodipy-positive cells: 31.3 ± 3%

SMILES: Cc1onc(-c2ccccc2Cl)c1C(=O)N[C@@H]1C(=O)N2[C@@H]1SC(C)(C)[C@@H]2C(=O)O [Cloxacillin Sodium]
- percent Bodipy-positive cells [2]: 6.77 ± 0.31%
- percent Bodipy-positive cells [3]: 10 ± 1.4%

SMILES: Cc1onc(-c2ccccc2Cl)c1C(=O)N[C@@H]1C(=O)N2[C@@H]1SC(C)(C)[C@@H]2C(=O)O [Cloxacillin sodium]
- percent Bodipy-positive cells [1]: 2.39 ± 0.4%
- percent Bodipy-positive cells [3]: 10.2 ± 0.54%

SMILES: C#Cc1cccc(Nc2ncnc3cc(OCCOC)c(OCCOC)cc23)c1 [Erlotinib HCl (OSI-744)]
- percent Bodipy-positive cells [2]: 11.5 ± 2.2%
- percent Bodipy-positive cells [3]: 27.1 ± 7.5%

SMILES: C#Cc1cccc(Nc2ncnc3cc(OCCOC)c(OCCOC)cc23)c1 [Erlotinib]
- percent Bodipy-positive cells (library stock concentration: 5.1 mM): 8.76 ± 3%

SMILES: C#Cc1cccc(Nc2ncnc3cc(OCCOC)c(OCCOC)cc23)c1
- percent Bodipy-positive cells [4]: 13.5 ± 1.1%
- percent Bodipy-positive cells [5]: 11.4% and 14.9%
- percent Bodipy-positive cells [6]: 17.6% and 13.5%
- percent Bodipy-positive cells [3]: 18.5% and 40.3%

SMILES: COc1ccc(Cn2ccc3ccc(C(=O)NO)cc32)cc1
- percent Bodipy-positive cells [2]: 9.03 ± 4.3%
- percent Bodipy-positive cells [3]: 12.2 ± 2.9%

SMILES: CN(CCO)CC(O)Cn1cnc2c1c(=O)n(C)c(=O)n2C (centres undefined)
- percent Bodipy-positive cells [3]: 7.63 ± 0.76%

SMILES: NC(=O)c1cnc(N[C@@H]2CCCC[C@@H]2N)nc1Nc1cccc(-n2nccn2)c1
- percent Bodipy-positive cells [4]: 6.52 ± 0.96%
- percent Bodipy-positive cells [5]: 12.5 ± 4.2%
- percent Bodipy-positive cells [6]: 24.6 ± 4.9%
- percent Bodipy-positive cells [2]: 73.7 ± 9.9%
- percent Bodipy-positive cells [3]: 100% and 83.1%

SMILES: CN[C@H](CC(=O)O)C(=O)O [N-Methyl-D-aspartic acid]
- percent Bodipy-positive cells [3]: 26.2 ± 4.7%

SMILES: CN[C@H](CC(=O)O)C(=O)O [N-methyl-d-aspartic acid (nmda)]
- percent Bodipy-positive cells [3]: 39.1 ± 11%

SMILES: CCCCCCCC/C=C\C/C=C\C/C=C\CCCC(=O)O [Mead acid (20:3 n-9)]
- percent Bodipy-positive cells [7]: 6.36 ± 2.8%

SMILES: NS(=O)(=O)c1cc2c(cc1Cl)NC(C(Cl)Cl)NS2(=O)=O (centres undefined) [Trichlormethiazide]
- percent Bodipy-positive cells: 9.01 ± 2.4%
- percent Bodipy-positive cells [2]: 10.3 ± 0.75%
- percent Bodipy-positive cells [8]: 11.1 ± 1.4%
- percent Bodipy-positive cells [3]: 7.06% and 18.3%

SMILES: NS(=O)(=O)c1cc2c(cc1Cl)NC(C(Cl)Cl)NS2(=O)=O (centres undefined) [Trichloromethiazide]
- percent Bodipy-positive cells [8]: 8 ± 3.5%

SMILES: CN1CCN(C2Cc3ccccc3Sc3ccc(Cl)cc32)CC1 (centres undefined)
- percent Bodipy-positive cells [3]: 93.9 ± 1.1%

SMILES: CN[C@@H]1[C@H](O)[C@H](NC)[C@H]2O[C@@]3(O)C(=O)C[C@@H](C)O[C@H]3O[C@@H]2[C@H]1O [Spectinomycin hydrochloride]
- percent Bodipy-positive cells (library stock concentration: 4.9 mM): 10.6 ± 5.1%
- percent Bodipy-positive cells [3]: 8.09 ± 4.2%

SMILES: CN[C@@H]1[C@H](O)[C@H](NC)[C@H]2O[C@@]3(O)C(=O)C[C@@H](C)O[C@H]3O[C@@H]2[C@H]1O
- percent Bodipy-positive cells [3]: 21.3 ± 4.1%

SMILES: CN[C@@H]1[C@H](O)[C@H](NC)[C@H]2O[C@@]3(O)C(=O)C[C@@H](C)O[C@H]3O[C@@H]2[C@H]1O [Spectinomycin]
- percent Bodipy-positive cells (library stock concentration: 6 mM): 7.57 ± 2.8%

SMILES: CN[C@@H]1[C@H](O)[C@H](NC)[C@H]2O[C@@]3(O)C(=O)C[C@@H](C)O[C@H]3O[C@@H]2[C@H]1O [Spectinomycin dihydrochloride]
- percent Bodipy-positive cells: 8.81 ± 3.3%

SMILES: CN[C@@H]1[C@H](O)[C@H](NC)[C@H]2O[C@@]3(O)C(=O)C[C@@H](C)O[C@H]3O[C@@H]2[C@H]1O [Spectinomycin HCl]
- percent Bodipy-positive cells [2]: 9.37 ± 2.9%
- percent Bodipy-positive cells [3]: 8.22 ± 1.2%

SMILES: CN1C(=O)C(c2c[nH]c3ccccc23)=C(c2c[nH]c3ccccc23)C1=O [Bisindolylmaleimide V]
- percent Bodipy-positive cells [7]: 5.89 ± 2.4%
- percent Bodipy-positive cells [2]: 8.29 ± 7.4%

SMILES: CCCCCCOC(=O)NC(=N)c1ccc(NCc2nc3cc(C(=O)N(CCC(=O)OCC)c4ccccn4)ccc3n2C)cc1 [Dabigatran Etexilate]
- percent Bodipy-positive cells [2]: 45.4 ± 34%
- percent Bodipy-positive cells [3]: 62.7 ± 0.66%

SMILES: CN(N=O)C(=O)N[C@@H]1[C@@H](O)[C@H](O)[C@@H](CO)O[C@@H]1O [Streptozosin]
- percent Bodipy-positive cells (library stock concentration: 7.5 mM): 14.9 ± 4.1%
- percent Bodipy-positive cells [3]: 15 ± 2%

SMILES: NCCCC(=O)O [Gamma-aminobutyric acid]
- percent Bodipy-positive cells [3]: 18.2 ± 3.6%

SMILES: Cc1ccc(-c2nn(C(C)(C)C)c3ncnc(N)c23)cc1
- percent Bodipy-positive cells [4]: 4.57 ± 1.4%
- percent Bodipy-positive cells [5]: 6.84 ± 2.3%
- percent Bodipy-positive cells [6]: 6.24 ± 1.7%
- percent Bodipy-positive cells [2]: 11.7 ± 1.4%

SMILES: CCCCCCCCCCCCCCCCCCCCCCO [Docosanol]
- percent Bodipy-positive cells (library stock concentration: 6.1 mM): 9.34 ± 3.4%

SMILES: COc1ccc(O)cc1 [Mequinol]
- percent Bodipy-positive cells [2]: 13.2 ± 0.16%
- percent Bodipy-positive cells [3]: 38.1 ± 16%

SMILES: COc1ccc(O)cc1
- percent Bodipy-positive cells [3]: 21.8 ± 8.9%

SMILES: CC(=O)NC(Cc1ccccc1)C(=O)O (centres undefined)
- percent Bodipy-positive cells [3]: 23.7 ± 4.3%

SMILES: CC(C)C[C@@H](C(=O)N[C@H](C(=O)OC1CCCC1)c1ccccc1)[C@H](O)C(=O)NO
- percent Bodipy-positive cells [3]: 10.8 ± 3.3%
